Some results were stated once for a whole list of compounds, not compound by compound.
Experiment: Stability study: storage in a sealed reagent bottle at -20° C for three months (description, water content, HPLC purity, XRPD)
Format: physicochemical
Conditions: summary of the stability study
Procedure: An appropriate amount of the sample of the amorphous as well as RK-1 polymorphic form of Lurbinectedin obtained in examples 5 to 9 was placed in a reagent bottle at-20° C. under a sealed condition for the period of three months to perform a stability test. X-ray powder diffraction pattern, HPLC purity as well as DSC Chromatogram of amorphous as well as RK-1 polymorphic form of Lurbinectedin was evaluated again after storing for period of 3 months. Result of the stability study of both amorphous (Obtained in Example 5) as well as RK-1 polymorphic form of Lurbinectedin (Obtained in Example 6) has been tabulated in Tables 1-2 given below. […] Characteristic peaks in the XRPD pattern and DSC chromatogram of RK-1 polymorphic form of Lurbinectedin obtained initially as well as after storing for the period of three months have been tabulated in Table 3 given below.

| Compound | Content of one or more impurities selected from in-situ intermediate impurity E, Deacetyl impurity F and Dehydroxy impurity G | Purity confirmed by the stability study |
| --- | --- | --- |
| COc1ccc2[nH]c3c(c2c1)CCN[C@]31CS[C@@H]2c3c(OC(C)=O)c(C)c4c(c3[C@H](COC1=O)N1[C@@H]2[C@H]2c3c(cc(C)c(OC)c3O)C[C@@H]([C@@H]1O)N2C)OCO4 [Amorphous form of Lurbinectedin, Lurbinectedin] | less than 0.15% | greater than 99.7% |
| COc1ccc2[nH]c3c(c2c1)CCN[C@]31CS[C@@H]2c3c(OC(C)=O)c(C)c4c(c3[C@H](COC1=O)N1[C@@H]2[C@H]2c3c(cc(C)c(OC)c3O)C[C@@H]([C@@H]1O)N2C)OCO4 [polymorphic form RK-1 of Lurbinectedin, Lurbinectedin] | less than 0.15% | greater than 99.7% |
